Data published in paper PMC12135937.
Results are given in words; binding and its absence hold for the method and conditions named. Some results given as binding are weak or reduced against the parent protein; the word gives no strength.

Sequences of proteins named here, by UniProt entry; tags and fusion partners are left off. Residues count along the entry.
UniProt P08138, residues 29-427: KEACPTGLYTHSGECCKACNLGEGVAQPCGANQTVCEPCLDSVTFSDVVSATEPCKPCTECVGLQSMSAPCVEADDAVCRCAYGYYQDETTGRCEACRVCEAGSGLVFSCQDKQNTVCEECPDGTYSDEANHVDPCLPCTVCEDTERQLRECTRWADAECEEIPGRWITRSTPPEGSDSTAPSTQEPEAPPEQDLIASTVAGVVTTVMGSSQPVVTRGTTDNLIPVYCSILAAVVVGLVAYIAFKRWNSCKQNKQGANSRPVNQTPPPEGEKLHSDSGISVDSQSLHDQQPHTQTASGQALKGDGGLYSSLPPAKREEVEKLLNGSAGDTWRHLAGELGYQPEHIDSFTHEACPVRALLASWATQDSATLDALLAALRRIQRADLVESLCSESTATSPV

Molecular target: p75^NTR-GFP, expressed on HEK293 cells (UniProt P08138)
Test: flow cytometry on cells; cell-cell adhesion: HEK293 Freestyle cells expressing a Dpr (IRES GFP, challenger) mixed in equal volumes with cells expressing a DIP or DIP/Dpr (mCherry) in PBS 0.2% BSA pH 7.4, 96-well plates; percent GFP+mCherry double-positive events

- binding: binds
Substance: B7-1-mCherry, expressed on HEK293 cells (from UniProt P33681 35-288) (ligand)
